# Laboratory results reported in paper PMC9390996.
# These are yes or no findings as the source states them, for the method shown. In cells and extracts the contact can be indirect. Some binding calls cover weakened binding; strength is not graded here. For part of these data: Sequences can lack the tags named with a protein.
# B1: estrogen-related receptor gamma (ESRRG) (endogenous, SH-SY5Y neuroblastoma cells) (protein, UniProt P62508 1-458)
# chain: MDSVELCLPESFSLHYEEELLCRMSNKDRHIDSSCSSFIKTEPSSPASLTDSVNHHSPGGSSDASGSYSSTMNGHQNGLDSPPLYPSAPILGGSGPVRKLYDDCSSTIVEDPQTKCEYMLNSMPKRLCLVCGDIASGYHYGVASCEACKAFFKRTIQGNIEYSCPATNECEITKRRRKSCQACRFMKCLKVGMLKEGVRLDRVRGGRQKYKRRIDAENSPYLNPQLVQPAKKPYNKIVSHLLVAEPEKIYAMPDPTVPDSDIKALTTLCDLADRELVVIIGWAKHIPGFSTLSLADQMSLLQSAWMEILILGVVYRSLSFEDELVYADDYIMDEDQSKLAGLLDLNNAILQLVKKYKSMKLEKEEFVTLKAIALANSDSMHIEDVEAVQKLQDVLHEALQDYEAGQHMEDPRRAGKMLMTLPLLRQTSTKAVQHFYNIKLEGKVPMHKLFLEMLEAKV
# B2: V5-tagged WT ESRRG (protein, UniProt P62508 1-458)
# chain: B1 chain
# B3: ESRRG in HEK293 cells (protein, UniProt P62508 1-458)
# chain: B1 chain
# Assays:
# [1] = target: T1, RB1 (endogenous, SH-SY5Y neuroblastoma cells) (human (endogenous in SH-SY5Y)) (UniProt P06400); test: co-IP; endogenous proteins in RB1-WT SH-SY5Y cells; cells treated with dithiobis succinimidyl propionate, lysed in NP-40 buffer; immunoprecipitation for RB1, ESRRG or IgG control overnight at 4°C, protein G Dynabeads, Western blot
# T1 sequence: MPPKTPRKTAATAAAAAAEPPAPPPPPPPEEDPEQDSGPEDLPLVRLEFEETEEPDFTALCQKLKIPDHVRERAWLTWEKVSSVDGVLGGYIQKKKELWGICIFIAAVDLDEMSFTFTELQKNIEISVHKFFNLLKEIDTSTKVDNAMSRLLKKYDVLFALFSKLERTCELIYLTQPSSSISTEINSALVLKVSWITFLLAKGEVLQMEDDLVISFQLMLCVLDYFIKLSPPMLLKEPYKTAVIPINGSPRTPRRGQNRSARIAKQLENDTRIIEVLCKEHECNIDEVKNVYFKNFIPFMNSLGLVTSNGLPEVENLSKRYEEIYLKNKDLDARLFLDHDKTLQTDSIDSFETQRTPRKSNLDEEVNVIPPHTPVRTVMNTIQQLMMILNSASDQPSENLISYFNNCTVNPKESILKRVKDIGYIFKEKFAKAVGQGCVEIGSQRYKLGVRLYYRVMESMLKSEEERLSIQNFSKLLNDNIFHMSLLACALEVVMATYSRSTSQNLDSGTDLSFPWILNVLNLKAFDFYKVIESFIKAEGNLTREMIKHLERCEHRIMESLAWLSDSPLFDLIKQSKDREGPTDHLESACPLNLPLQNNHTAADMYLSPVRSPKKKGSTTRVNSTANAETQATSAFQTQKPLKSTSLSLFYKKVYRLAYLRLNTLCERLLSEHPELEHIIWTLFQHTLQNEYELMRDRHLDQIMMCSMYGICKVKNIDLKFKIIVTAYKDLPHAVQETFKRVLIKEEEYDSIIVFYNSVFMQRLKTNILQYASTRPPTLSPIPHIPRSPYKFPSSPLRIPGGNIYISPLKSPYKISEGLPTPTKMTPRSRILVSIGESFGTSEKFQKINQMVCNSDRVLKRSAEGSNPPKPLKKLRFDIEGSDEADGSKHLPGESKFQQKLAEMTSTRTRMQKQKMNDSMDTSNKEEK
# [2] = target: T2, hemagglutinin (HA)-tagged RB1 (human) (UniProt P06400); test: co-IP; ectopically expressed HA-RB1 and V5-ESRRG (WT or MUT) in RB1-null C33A cells; cells treated with dithiobis succinimidyl propionate, lysed in NP-40 buffer; immunoprecipitation for HA or for V5, protein G Dynabeads, Western blot
# T2 sequence: T1 sequence
# [3] = target: T3, RB1 in RB1-WT HEK293 cells (human) (UniProt P06400); test: co-IP; RB1-WT HEK293 cells (express adenoviral E1A); fig. S10; cells treated with dithiobis succinimidyl propionate, lysed in NP-40 buffer
# T3 sequence: T1 sequence
binder,measurement,setting,value
B1,binding,[1],binds
B2,binding,[2],binds
B3,binding,[3],binds
